Test results: publication PMC11723922
Results are given in words; binding and its absence hold for the method and conditions named. Binding seen in cells or lysates may run through a third protein. For some assays here: Binding can be weak; no strength is given.

Legend:
[1] = target: eGFP-TGM4 D1-3 fusion (Heligmosomoides polygyrus); assay: co-IP; GFP-TRAP beads on lysates (10 mM Tris-HCl pH 7.5, 150 mM NaCl, 0.5 mM EDTA, 0.5% NP-40) of MFB-F11 or RAW264.7 cells transfected with eGFP-TGM fusions; 1 h at 4 °C; western blot for endogenous TβRI, TβRII, CD44
[2] = target: eGFP-TGM4 D4-5 fusion (Heligmosomoides polygyrus); assay: as above

B1: CD44, endogenous mouse (receptor, UniProt P15379 23-778)
chain: QIDLNVTCRYAGVFHVEKNGRYSISRTEAADLCQAFNSTLPTMDQMKLALSKGFETCRYGFIEGNVVIPRIHPNAICAANHTGVYILVTSNTSHYDTYCFNASAPPEEDCTSVTDLPNSFDGPVTITIVNRDGTRYSKKGEYRTHQEDIDASNIIDDDVSSGSTIEKSTPEGYILHTYLPTEQPTGDQDDSFFIRSTLATIASTVHSKSHAAAQKQNNWIWSWFGNSQSTTQTQEPTTSATTALMTTPETPPKRQEAQNWFSWLFQPSESKSHLHTTTKMPGTESNTNPTGWEPNEENEDETDTYPSFSGSGIDDDEDFISSTIATTPRVSARTEDNQDWTQWKPNHSNPEVLLQTTTRMADIDRISTSAHGENWTPEPQPPFNNHEYQDEEETPHATSTTPNSTAEAAATQQETWFQNGWQGKNPPTPSEDSHVTEGTTASAHNNHPSQRITTQSQEDVSWTDFFDPISHPMGQGHQTESKDTDSSHSTTLQPTAAPNTHLVEDLNRTGPLSVTTPQSHSQNFSTLHGEPEEDENYPTTSILPSSTKSSAKDARRGGSLPTDTTTSVEGYTFQYPDTMENGTLFPVTPAKTEVFGETEVTLATDSNVNVDGSLPGDRDSSKDSRGSSRTVTHGSELAGHSSANQDSGVTTTSGPMRRPQIPEWLIILASLLALALILAVCIAVNSRRRCGQKKKLVINGGNGTVEDRKPSELNGEASKSQEMVHLVNKEPSETPDQCMTADETRNLQSVDMKIGV
binding [1]: no binding
binding [2]: binds
